# Data as given in PubChem BioAssay AID1224828 (NIAID, 2016).
# Purpose: 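Regulators linking TLR4 signalling to p65 nuclear translocation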 (primary screen)
# Cells: mouse RAW264.7 G9 macrophage reporter cells (GFP-p65, Tnf promoter-mCherry)
# Reagent: siRNA pool against mouse genes, 100 nM
# Duration: 2 days siRNA transfection, then 40 min LPS before fixation
# Treatment: LPS (Salmonella minnesota R595) at 10 ng/ml
# Read-out: 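Microscopy ratio of nuclear to perinuclear-ring GFP-p65 signal, scaled to the plate median; gene score is the average of two replicate robust z-scores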
# Direction: p65 translocation robust z-score: higher = more nuclear NF-kappaB p65 after LPS than the plate median; nuclear/cytoplasmic p65 ratio: higher = more nuclear NF-kappaB p65
# Hit rule: 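Called active when z exceeds 3.3 or falls under -1.56 (median of Tlr4 controls), giving activity score of at least 50; no calls for control wells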
# Meaning of the calls: active = hit (p65 shift raised or lowered); inactive = no clear change
# The deposit covers about 17,000 reagents; shown is an unselected part. 762 of them (4.5%) count as active. 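Active calls include both raised and lowered p65 entry, mostly lowered; wells with fewer than 50 cells lack a z-score.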 Raw values are not corrected between plates.
Target gene,PubChem SID,p65 translocation robust z-score,"nuclear/cytoplasmic p65 ratio, rep 1","nuclear/cytoplasmic p65 ratio, rep 2",low cell count flag,call
Tm4sf5,SID315475157,-1.9,1.05,1.05,enough cells to score,active
Or1j19,SID315480566,,1.58,1.25,fewer than 50 cells per well; well left out of scoring,inactive
Zwilch,SID315473362,,1.2,1,fewer than 50 cells per well; well left out of scoring,inactive
Chm,SID315465962,0.05,1.53,1.33,enough cells to score,inactive
Ikzf1,SID315470154,-1.9,1.21,0.991,enough cells to score,active
Zfp955a,SID315475496,-0.72,1.26,1.22,enough cells to score,inactive
Uqcr10,SID315472248,-0.37,1.48,1.41,enough cells to score,inactive
Trappc9,SID315475333,,1.61,1.23,fewer than 50 cells per well; well left out of scoring,inactive
Zfyve16,SID315478192,-0.33,1.32,1.26,enough cells to score,inactive
Arl14ep,SID315477761,-1.4,1.27,1.22,enough cells to score,inactive
Fgfr1op2,SID315473082,0.95,1.81,1.52,enough cells to score,inactive
Pes1,SID315472134,-1.27,1.27,1.25,enough cells to score,inactive

Entries listed so far whose gene name begins with Z or z (3):
Target gene,PubChem SID,p65 translocation robust z-score,"nuclear/cytoplasmic p65 ratio, rep 1","nuclear/cytoplasmic p65 ratio, rep 2",low cell count flag,call
Zwilch,SID315473362,,1.2,1,fewer than 50 cells per well; well left out of scoring,inactive
Zfp955a,SID315475496,-0.72,1.26,1.22,enough cells to score,inactive
Zfyve16,SID315478192,-0.33,1.32,1.26,enough cells to score,inactive

Next reagents:
Target gene,PubChem SID,p65 translocation robust z-score,"nuclear/cytoplasmic p65 ratio, rep 1","nuclear/cytoplasmic p65 ratio, rep 2",low cell count flag,call
Arhgap44,SID315478037,,1.27,1.68,fewer than 50 cells per well; well left out of scoring,inactive
Parva,SID315471766,1.04,1.49,1.64,enough cells to score,inactive
Itih1,SID315467526,-0.87,1.42,1.28,enough cells to score,inactive
Eif2b3,SID315476676,1.67,1.78,1.5,enough cells to score,inactive
Golga2,SID315476179,0.47,1.63,1.69,enough cells to score,inactive
Fbxl21,SID315477793,1.14,1.73,1.71,enough cells to score,inactive
Dcaf8l,SID315468470,-0.36,1.42,1.18,enough cells to score,inactive
Slc9a1,SID315469317,,1.41,1.34,fewer than 50 cells per well; well left out of scoring,inactive
Med17,SID315479212,-1.45,1.41,1.08,enough cells to score,inactive
Vat1l,SID315480916,-0.81,1.5,1.54,enough cells to score,inactive
Psmb10,SID315468739,0.22,1.53,1.44,enough cells to score,inactive
Cldn3,SID315465994,-0.83,1.31,1.31,enough cells to score,inactive
